Source: article PMC7437355
Residue numbers refer to the chain shown, from its start. No constants are given. Whether binding was seen depends on the method and setting. In cells and extracts the contact can be indirect. Some entries that bind do so weakly or less than the wild type. Tags and fused reporters may be left off the sequences shown.

Amino acid sequences for entries named in this document (tags omitted).
UniProt P21359: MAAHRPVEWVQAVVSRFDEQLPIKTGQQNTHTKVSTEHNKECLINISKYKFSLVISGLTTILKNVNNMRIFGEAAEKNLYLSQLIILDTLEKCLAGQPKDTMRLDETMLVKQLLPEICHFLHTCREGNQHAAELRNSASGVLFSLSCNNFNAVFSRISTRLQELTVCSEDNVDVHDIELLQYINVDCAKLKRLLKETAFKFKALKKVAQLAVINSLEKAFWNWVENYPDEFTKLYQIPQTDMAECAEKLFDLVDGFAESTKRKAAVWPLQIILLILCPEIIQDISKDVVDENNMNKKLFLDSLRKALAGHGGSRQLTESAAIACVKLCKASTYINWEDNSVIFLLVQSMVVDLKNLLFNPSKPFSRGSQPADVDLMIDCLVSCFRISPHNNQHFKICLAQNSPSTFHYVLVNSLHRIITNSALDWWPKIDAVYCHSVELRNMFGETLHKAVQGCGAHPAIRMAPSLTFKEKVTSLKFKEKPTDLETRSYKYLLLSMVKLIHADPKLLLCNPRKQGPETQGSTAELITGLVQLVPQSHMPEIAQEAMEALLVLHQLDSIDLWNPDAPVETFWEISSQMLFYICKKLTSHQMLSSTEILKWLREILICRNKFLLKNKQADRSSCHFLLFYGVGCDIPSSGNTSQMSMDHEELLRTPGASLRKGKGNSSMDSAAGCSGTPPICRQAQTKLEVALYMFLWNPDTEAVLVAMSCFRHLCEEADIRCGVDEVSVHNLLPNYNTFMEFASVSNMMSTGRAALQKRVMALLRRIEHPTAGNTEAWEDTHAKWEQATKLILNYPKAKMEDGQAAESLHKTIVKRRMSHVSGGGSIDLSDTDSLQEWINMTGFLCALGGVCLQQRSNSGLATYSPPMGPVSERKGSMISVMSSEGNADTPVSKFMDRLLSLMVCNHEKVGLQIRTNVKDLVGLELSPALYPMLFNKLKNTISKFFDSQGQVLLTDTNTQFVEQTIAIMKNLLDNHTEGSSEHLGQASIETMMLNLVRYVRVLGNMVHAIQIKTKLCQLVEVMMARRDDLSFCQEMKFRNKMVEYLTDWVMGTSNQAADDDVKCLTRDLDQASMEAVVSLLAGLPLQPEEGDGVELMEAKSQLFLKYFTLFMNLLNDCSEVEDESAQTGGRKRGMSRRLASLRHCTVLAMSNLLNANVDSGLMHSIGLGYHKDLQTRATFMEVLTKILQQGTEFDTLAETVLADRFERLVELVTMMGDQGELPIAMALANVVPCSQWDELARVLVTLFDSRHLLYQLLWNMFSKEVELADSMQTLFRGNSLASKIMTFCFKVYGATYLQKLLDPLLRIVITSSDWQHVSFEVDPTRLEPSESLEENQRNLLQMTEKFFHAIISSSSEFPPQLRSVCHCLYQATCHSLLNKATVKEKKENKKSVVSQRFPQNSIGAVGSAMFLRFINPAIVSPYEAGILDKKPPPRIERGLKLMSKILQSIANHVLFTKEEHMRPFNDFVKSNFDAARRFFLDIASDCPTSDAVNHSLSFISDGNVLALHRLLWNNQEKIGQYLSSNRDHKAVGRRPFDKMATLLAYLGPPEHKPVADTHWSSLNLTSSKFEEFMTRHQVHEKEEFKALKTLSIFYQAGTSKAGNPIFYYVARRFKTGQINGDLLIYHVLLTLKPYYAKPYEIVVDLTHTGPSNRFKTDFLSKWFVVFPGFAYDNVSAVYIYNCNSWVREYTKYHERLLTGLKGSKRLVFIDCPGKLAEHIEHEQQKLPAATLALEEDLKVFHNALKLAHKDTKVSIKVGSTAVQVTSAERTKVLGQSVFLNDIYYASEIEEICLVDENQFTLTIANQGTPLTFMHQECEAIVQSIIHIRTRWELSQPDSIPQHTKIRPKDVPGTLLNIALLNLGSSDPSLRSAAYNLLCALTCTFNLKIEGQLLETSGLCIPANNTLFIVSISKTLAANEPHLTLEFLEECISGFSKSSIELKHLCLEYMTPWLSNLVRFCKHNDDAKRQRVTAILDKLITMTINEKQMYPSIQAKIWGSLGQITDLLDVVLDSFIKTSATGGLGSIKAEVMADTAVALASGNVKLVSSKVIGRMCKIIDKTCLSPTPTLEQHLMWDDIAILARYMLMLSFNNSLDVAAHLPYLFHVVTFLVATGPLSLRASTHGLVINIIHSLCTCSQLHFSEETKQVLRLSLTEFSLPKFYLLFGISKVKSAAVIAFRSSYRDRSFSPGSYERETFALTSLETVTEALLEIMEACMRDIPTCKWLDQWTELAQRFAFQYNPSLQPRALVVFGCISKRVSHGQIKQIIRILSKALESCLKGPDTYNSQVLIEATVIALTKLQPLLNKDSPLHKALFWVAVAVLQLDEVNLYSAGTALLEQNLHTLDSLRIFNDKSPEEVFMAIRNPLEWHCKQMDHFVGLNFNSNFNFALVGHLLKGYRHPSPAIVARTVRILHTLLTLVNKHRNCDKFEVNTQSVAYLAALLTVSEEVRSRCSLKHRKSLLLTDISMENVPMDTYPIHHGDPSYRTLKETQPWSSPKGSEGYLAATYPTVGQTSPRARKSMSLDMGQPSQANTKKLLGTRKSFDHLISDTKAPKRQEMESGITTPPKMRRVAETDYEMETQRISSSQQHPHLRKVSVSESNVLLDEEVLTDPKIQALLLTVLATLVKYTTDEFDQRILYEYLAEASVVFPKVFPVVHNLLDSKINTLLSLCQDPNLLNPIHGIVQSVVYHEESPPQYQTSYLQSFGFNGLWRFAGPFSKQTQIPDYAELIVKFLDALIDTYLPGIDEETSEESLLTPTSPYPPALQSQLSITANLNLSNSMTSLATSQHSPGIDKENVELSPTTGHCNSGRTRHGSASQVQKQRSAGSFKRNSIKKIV

Experiments:
Test in all cases: co-IP; anti-FLAG IP of SPRED1-FLAG constructs from transiently transfected HEK293T lysate, western blot for endogenous NF1
[1] = molecular target: T1, SPRED1-FLAG, wild type, expressed in HEK293T (human) (UniProt Q7Z699)
T1 sequence: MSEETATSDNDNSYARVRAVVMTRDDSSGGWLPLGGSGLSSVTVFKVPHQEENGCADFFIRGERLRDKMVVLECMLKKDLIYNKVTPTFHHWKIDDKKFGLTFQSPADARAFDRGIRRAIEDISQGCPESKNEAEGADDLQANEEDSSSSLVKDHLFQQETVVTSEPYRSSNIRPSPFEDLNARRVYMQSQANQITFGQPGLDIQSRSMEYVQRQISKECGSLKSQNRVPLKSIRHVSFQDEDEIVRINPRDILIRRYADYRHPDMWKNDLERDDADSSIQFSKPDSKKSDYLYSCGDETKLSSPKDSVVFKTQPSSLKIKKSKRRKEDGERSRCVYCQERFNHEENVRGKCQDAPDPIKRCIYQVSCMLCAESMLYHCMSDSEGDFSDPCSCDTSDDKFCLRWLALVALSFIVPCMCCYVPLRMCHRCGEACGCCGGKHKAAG

[2] = molecular target: T2, SPRED1(S105A)-FLAG, phosphodeficient, expressed in HEK293T (human) (UniProt Q7Z699)
T2 sequence: T1 sequence with S105A

[3] = molecular target: T3, SPRED1(S105D)-FLAG, phosphomimetic, expressed in HEK293T (human) (UniProt Q7Z699)
T3 sequence: T1 sequence with S105D

Measured: binding

endogenous NF1 (neurofibromin) in HEK293T (from UniProt P21359 1-2839)
binds: [1] | [2] | [3]
